Test results: PMC10247384
No constants are given. Whether binding was seen depends on the method and setting. Binding seen in cells or lysates may run through a third protein. Some binding calls cover weakened binding; strength is not graded here.

Chains of the proteins cited; added tags and fusions are not shown. Lines headed by an entry give the natural chain unless they say otherwise; changes in a name come on top.
UniProt Q9H6L5, whole entry: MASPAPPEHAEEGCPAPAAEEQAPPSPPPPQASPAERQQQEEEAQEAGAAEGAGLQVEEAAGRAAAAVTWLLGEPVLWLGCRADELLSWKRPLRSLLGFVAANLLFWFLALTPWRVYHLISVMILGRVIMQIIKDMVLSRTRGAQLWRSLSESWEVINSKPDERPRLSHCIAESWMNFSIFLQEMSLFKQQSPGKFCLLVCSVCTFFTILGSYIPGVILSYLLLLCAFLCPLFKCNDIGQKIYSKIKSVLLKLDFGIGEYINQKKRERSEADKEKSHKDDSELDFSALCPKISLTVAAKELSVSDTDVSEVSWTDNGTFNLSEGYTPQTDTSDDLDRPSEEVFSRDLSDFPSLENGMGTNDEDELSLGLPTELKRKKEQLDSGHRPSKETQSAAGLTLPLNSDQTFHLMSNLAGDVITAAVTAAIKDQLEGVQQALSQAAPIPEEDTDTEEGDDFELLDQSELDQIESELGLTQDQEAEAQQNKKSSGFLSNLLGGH

Biological target: haemagglutinin (HA)-tagged ARL6IP1 (UniProt Q15041)
Test: co-IP; HEK293T cells transfected with HA-tagged ARL6IP1 or FAM134B constructs; WT and variant proteins pulled down, the endogenous binding partner detected by immunoblot

Substance: endogenous FAM134B (human cells) (from UniProt Q9H6L5 1-497)
- binding: binds
